# Data from paper PMC11628342.
# No constants are given. Whether binding was seen depends on the method and setting. In cells and extracts the contact can be indirect. Some binding calls cover weakened binding; strength is not graded here. For part of these data: Tags and fused reporters may be left off the sequences shown.
# T1: inhibitor of nuclear factor kappa B kinase subunit epsilon (IKBKE), FLAG-tagged (UniProt Q14164)
# T1 sequence: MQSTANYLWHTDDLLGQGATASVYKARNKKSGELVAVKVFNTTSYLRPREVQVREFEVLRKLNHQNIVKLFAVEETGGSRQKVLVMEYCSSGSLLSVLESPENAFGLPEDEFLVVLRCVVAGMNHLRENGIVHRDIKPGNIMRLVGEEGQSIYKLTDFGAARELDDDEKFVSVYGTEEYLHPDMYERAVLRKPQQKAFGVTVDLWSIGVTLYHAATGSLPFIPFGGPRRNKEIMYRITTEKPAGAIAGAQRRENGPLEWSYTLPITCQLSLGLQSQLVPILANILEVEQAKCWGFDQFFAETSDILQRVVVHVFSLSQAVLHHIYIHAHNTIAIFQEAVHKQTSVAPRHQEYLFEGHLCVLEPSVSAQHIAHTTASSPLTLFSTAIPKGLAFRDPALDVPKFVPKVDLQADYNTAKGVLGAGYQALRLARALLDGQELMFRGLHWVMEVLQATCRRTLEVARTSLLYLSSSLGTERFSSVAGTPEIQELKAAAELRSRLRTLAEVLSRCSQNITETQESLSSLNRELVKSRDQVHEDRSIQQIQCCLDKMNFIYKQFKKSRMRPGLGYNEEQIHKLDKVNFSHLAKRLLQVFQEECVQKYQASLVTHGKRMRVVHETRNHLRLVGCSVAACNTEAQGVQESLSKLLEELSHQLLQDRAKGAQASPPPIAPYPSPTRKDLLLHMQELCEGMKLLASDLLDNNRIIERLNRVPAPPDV
# T2: ribonucleotide reductase M2 (RRM2), FLAG-tagged (UniProt P31350)
# T2 sequence: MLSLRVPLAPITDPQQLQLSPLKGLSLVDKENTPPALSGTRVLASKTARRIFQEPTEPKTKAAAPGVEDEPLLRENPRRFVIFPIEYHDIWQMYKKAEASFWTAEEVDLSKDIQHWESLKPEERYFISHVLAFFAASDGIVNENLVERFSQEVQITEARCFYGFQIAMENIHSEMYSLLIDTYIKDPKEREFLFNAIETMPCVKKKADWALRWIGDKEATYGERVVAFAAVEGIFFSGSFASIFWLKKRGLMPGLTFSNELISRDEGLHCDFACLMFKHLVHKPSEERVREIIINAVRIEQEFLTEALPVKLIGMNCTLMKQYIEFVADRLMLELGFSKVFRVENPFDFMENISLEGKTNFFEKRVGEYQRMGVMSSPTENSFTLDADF
# T3: endogenous IKBKE (human (endogenous in 769-P and 786-O)) (UniProt Q14164)
# T3 sequence: T1 sequence
# B1: ribonucleotide reductase M2 (RRM2), Myc-tagged (protein, UniProt P31350 1-389)
# chain: T2 sequence
# B2: inhibitor of nuclear factor kappa B kinase subunit epsilon (IKBKE), Myc-tagged (protein, UniProt Q14164 1-716)
# chain: T1 sequence
# B3: endogenous RRM2 (protein, UniProt P31350 1-389)
# chain: T2 sequence
# Assays:
# [1] = target: T1, inhibitor of nuclear factor kappa B kinase subunit epsilon (IKBKE), FLAG-tagged; assay: co-IP; Myc- and FLAG-tagged plasmids co-transfected into HEK293T cells; immunoprecipitation with anti-FLAG antibody (beads at 4 °C overnight, washed 6 times with PBS); precipitates blotted with anti-Myc and anti-Flag antibodies
# [2] = target: T2, ribonucleotide reductase M2 (RRM2), FLAG-tagged; assay: as above
# [3] = target: T3, endogenous IKBKE (human (endogenous in 769-P and 786-O)); assay: co-IP; whole-cell lysates of 769-P and 786-O cells precipitated with IKBKE antibodies (protein A + G beads, 4 °C overnight); precipitates immunoblotted for the endogenous proteins
binder,measurement,setting,value
B1,binding,[1],binds
B2,binding,[2],binds
B3,binding,[3],binds
